Results from the supplement of paper PMC10849652.
This is one part of the list.

The chains behind the UniProt entries cited, without tags or fusion partners. Where a name states a change or a piece, a line headed by the entry shows the natural chain unless it says otherwise.
UniProt P19447: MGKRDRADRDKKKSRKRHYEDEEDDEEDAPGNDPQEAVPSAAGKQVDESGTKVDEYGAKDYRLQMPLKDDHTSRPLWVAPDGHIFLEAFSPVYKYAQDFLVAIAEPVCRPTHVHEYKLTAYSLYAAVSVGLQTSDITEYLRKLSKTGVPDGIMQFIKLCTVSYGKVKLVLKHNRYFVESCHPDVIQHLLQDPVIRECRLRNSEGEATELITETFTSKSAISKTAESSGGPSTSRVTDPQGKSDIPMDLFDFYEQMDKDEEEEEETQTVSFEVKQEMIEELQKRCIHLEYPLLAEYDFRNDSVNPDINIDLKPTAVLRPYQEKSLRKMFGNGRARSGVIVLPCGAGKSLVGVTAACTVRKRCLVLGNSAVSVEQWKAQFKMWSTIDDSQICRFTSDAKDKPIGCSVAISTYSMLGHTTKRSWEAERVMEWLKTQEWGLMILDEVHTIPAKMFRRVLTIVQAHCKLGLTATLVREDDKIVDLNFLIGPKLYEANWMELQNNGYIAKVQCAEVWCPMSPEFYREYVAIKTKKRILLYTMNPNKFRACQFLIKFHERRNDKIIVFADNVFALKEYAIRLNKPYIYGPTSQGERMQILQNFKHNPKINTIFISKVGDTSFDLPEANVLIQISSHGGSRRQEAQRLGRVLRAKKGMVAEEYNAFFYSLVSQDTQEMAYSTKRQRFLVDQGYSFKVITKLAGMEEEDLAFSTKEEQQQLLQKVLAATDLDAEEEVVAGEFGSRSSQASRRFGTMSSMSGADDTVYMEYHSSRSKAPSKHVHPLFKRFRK
UniProt P13804: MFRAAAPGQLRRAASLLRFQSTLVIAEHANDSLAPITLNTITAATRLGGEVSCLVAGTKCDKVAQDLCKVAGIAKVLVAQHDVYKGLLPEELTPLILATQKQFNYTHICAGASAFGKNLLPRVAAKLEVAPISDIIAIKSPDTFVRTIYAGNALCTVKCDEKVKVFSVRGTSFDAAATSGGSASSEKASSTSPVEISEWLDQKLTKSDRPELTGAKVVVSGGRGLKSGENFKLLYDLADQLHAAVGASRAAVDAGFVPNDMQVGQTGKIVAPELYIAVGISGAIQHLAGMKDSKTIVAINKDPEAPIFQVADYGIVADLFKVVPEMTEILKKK
UniProt P42566: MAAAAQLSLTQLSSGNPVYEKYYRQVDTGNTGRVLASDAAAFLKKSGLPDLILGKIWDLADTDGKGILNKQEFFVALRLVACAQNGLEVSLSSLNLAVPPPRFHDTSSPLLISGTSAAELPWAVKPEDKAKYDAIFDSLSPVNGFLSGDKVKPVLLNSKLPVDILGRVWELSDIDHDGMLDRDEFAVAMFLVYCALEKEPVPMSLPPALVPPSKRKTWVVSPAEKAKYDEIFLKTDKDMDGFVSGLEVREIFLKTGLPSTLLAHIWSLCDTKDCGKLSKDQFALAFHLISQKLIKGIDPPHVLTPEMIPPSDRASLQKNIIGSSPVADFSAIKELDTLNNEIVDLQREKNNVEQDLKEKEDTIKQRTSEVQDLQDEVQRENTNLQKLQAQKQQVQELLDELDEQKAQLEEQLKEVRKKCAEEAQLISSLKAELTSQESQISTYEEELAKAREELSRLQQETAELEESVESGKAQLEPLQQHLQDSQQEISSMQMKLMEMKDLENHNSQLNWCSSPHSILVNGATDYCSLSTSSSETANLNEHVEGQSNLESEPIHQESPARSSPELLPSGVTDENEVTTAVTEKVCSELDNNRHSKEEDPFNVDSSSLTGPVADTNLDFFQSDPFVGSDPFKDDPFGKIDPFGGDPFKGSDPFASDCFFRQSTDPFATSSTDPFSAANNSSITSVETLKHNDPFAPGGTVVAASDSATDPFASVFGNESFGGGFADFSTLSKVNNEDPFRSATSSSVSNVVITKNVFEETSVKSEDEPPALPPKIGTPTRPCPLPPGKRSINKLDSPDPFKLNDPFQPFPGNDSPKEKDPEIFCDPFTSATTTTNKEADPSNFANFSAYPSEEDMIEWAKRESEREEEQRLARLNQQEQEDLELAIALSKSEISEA
UniProt P10768: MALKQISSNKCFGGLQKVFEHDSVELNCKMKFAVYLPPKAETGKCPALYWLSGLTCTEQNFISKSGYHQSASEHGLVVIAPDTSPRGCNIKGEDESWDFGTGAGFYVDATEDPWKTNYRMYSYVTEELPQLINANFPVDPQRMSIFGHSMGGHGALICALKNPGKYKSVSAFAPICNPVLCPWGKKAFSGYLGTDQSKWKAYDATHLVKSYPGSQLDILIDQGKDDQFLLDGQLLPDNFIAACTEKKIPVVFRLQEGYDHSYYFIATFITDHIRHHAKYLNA
UniProt Q9NPD3, whole entry, looked up: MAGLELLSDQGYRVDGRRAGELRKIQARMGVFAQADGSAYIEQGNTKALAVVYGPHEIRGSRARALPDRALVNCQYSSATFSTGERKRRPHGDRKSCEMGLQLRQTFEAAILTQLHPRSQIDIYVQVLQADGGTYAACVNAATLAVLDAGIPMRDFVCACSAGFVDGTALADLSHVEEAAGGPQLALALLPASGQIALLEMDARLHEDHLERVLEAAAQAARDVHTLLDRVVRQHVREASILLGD
UniProt Q7Z309: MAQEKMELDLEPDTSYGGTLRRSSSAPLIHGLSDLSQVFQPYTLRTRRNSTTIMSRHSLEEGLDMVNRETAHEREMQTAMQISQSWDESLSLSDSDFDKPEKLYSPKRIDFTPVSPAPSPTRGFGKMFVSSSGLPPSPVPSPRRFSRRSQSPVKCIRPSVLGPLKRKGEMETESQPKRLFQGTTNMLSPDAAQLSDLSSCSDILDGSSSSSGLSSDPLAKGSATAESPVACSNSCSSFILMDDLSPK
UniProt Q9NWS6: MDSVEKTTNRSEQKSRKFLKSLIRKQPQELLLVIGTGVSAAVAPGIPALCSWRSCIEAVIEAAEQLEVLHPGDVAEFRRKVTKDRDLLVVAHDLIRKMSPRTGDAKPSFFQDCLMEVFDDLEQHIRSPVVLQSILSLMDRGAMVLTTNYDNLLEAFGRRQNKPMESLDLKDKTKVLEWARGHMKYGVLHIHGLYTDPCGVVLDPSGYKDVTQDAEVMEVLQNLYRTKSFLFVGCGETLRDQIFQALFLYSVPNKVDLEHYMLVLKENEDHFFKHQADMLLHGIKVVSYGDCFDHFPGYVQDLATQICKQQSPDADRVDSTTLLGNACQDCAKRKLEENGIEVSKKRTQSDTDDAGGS
UniProt Q9UBC2: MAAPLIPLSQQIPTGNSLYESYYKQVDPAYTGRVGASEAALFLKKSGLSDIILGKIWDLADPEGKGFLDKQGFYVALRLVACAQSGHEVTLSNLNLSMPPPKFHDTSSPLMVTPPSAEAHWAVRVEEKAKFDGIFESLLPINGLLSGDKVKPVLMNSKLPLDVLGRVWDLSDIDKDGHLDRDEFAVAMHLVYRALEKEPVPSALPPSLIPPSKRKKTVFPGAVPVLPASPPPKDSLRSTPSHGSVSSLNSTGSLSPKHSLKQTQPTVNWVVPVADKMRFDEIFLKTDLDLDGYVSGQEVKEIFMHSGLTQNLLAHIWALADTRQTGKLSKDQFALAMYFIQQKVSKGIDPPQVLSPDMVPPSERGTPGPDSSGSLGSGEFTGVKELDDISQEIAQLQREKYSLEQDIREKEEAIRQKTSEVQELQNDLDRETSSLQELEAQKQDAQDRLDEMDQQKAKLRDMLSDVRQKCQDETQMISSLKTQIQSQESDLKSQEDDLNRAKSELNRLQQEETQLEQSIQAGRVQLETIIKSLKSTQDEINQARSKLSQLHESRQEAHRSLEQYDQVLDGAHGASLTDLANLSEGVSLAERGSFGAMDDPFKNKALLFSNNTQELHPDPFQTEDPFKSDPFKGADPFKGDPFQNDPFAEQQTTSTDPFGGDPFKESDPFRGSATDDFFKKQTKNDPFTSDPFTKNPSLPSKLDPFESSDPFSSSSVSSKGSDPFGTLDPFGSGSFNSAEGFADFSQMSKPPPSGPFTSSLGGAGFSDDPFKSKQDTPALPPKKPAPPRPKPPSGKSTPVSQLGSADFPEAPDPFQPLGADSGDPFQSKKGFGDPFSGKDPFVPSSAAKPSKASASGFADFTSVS
UniProt Q96PV7: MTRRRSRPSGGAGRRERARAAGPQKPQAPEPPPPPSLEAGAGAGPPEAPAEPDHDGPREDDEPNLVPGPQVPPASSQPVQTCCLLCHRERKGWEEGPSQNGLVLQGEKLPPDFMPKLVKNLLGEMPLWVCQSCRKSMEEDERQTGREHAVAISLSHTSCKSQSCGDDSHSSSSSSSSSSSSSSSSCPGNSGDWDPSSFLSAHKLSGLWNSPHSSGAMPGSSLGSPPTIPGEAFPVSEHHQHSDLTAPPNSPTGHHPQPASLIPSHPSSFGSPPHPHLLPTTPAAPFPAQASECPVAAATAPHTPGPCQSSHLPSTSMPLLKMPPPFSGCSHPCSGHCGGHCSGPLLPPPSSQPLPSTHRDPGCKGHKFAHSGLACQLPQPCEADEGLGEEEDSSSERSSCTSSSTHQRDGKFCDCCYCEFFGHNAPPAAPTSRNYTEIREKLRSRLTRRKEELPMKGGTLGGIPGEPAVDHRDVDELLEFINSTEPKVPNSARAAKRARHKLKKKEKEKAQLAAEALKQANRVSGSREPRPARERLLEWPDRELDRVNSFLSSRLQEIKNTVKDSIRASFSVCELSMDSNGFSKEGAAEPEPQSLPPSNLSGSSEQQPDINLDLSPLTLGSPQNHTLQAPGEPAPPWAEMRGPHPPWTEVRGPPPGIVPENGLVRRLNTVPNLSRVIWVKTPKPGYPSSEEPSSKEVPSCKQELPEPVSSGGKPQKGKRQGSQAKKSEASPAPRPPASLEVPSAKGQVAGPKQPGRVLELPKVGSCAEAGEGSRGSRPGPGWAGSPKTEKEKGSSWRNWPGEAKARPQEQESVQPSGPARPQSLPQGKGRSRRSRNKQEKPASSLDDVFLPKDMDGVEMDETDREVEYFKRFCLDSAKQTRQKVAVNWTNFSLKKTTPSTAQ

Experiments:
Assay in all cases: log2 fold change, soluble protein after heating vs DMSO (PISA); higher = thermal stabilisation; K562 cells, 10 uM, 30 min; active = over 0.2 and 3.5 SD of the protein, either way, in both replicates (recomputed)
[1] = compound: C1=CC=C(C=C1)[C@H](COC2=CC3=C(C=C2)NC(=O)N3)NC(=O)C4=CC=CN(C4=O)CC5=CC(=C(C=C5)F)F
How it was run: (§1)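 Aliquots of K562 cells (2×10^6 cells/mL) treated with 10 μM compound for 30 min were heated for 3 min over 48°C-58°C. After pooling and extraction in PBS with 0.5% NP-40 at 4°C, soluble protein from a 21,000xg, 90 min spin was quantified by TMTpro 16plex LC-MS/MS with channel sums equalised. Thermal stability is expressed against control samples, from duplicates, as a log2 fold change.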

[2] = compound: CC1=C(SC2=C1C(=N[C@H](C3=NN=C(N32)C)CC(=O)N)C4=CC=C(C=C4)Cl)C
How it was run: as §1

[3] = compound: CC1=C2C(=CC=C1)N=C(N(C2=O)C3=CC=CC=C3C)CN4C=NC5=C(N=CN=C54)N
How it was run: as §1

[4] = compound: Cc1sc2c(c1C)C(c1ccc(Cl)cc1)=N[C@@H](CC(=O)OC(C)(C)C)c1nnc(C)n1-2
How it was run: as §1

[5] = compound: c1ccc([C@@H]2C[C@H]2NC2CCNCC2)cc1
How it was run: as §1

Measured: log2 fold change

ERCC3 (UniProt P19447)
inactive: [1] -0.203 | [2] -0.059 | [3] 0.028 | [4] -0.277 | [5] -0.042

ETFA (UniProt P13804)
inactive: [1] -0.004 | [2] 0.047 | [3] 0.016 | [4] -0.006 | [5] -0.027

EPS15 (UniProt P42566)
inactive: [1] -0.036 | [2] 0.026 | [3] 0.028 | [4] -0.007 | [5] -0.012

ESD (UniProt P10768)
inactive: [1] 0.002 | [2] 0.022 | [3] 0.05 | [4] -0.05 | [5] 0.016

EXOSC4 (UniProt Q9NPD3)
inactive: [1] 0.017 | [2] -0.032 | [3] -0.072 | [4] -0.025 | [5] 0.027

FAM122B isoform 3 (UniProt Q7Z309)
inactive: [1] 0.001 | [2] 0.081 | [3] 0.107 | [4] 0.03 | [5] -0.01

FAM118A (UniProt Q9NWS6)
inactive: [1] -0.079 | [2] 0.05 | [3] -0.102 | [4] -0.021 | [5] 0.003

EPS15L1 isoform 2 (UniProt Q9UBC2)
inactive: [1] 0.018 | [2] -0.001 | [3] 0.041 | [4] 0.013 | [5] 0.013

FAM193B (UniProt Q96PV7)
inactive: [1] -0.115 | [2] 0.011 | [3] -0.103 | [4] 0.273 | [5] -0.115
